The experiment has as its target human SST2R (Homo sapiens, UniProt P30874). Put plainly: Competition binding against [125I-Tyr25]LTT-SS28 in HEK293-SST2R cell membranes. The conditions noted are these: displacement of [125I-Tyr25]LTT-SS28, HEK293-SST2R cell membranes, 1 h 22 °C; mean ± sd. On the procedure:
Samples in triplicate for each concentration point were incubated for 1 h at 22 °C in an Incubator-Orbital Shaker unit, (MPM Instr. SrI). Competition was abruptly stopped by the addition of ice-cold washing buffer and fast filtration through glass fiber filters (Whatman GF/B, pre-soaked for 2 h in a 1% polyethyleneimine (PEI) aqueous solution). This operation was contacted semi-automatically on a Brandel Cell Harvester (Adi Hassel Ingenieur Büro, Munich, Germany). They were subsequently rinsed with ice-cold washing buffer (10 mM HEPES pH 7.4, 150 mM NaCl). Filters were collected in plastic tubes and their radioactivity content was measured in an automated multi-sample well-type γ-counter (NaI(Tl) 3'' crystal-equipped Canberra Packard Cobra^TM Quantum U5003/1, Auto-Gamma® instrument). Nonlinear regression for a one-site model was applied to determine the half-maximal inhibitory concentration (IC50) values using the PRISM^TM 6.0 GraphPad software (San Diego, CA, USA). Results from three independent experiments in triplicate were calculated and presented as mean IC50 ± standard deviation (sd) values.
Background: Displacement assays read how much labelled ligand stays bound in the presence of the test substance.

The chains behind the UniProt entries cited, without tags or fusion partners.
UniProt P30874, whole entry: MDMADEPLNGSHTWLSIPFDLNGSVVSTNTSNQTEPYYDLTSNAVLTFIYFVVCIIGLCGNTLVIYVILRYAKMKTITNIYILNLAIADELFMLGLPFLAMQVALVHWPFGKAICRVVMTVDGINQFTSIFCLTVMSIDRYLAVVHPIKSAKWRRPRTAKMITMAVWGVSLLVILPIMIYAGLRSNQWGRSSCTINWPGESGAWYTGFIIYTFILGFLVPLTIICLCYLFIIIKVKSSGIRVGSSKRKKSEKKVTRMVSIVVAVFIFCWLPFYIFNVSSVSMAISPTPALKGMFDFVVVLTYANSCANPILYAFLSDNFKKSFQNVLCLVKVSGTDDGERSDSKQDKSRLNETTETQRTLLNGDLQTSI

The structures appear in SMILES notation. The structures given here were assigned with low confidence; some may be wrong.

Broadly, the IC50 is the concentration needed to halve the response being measured. A higher IC50 goes with a need for much substance. The molecule `C[C@@H](O)[C@@H]1NC(=O)[C@H](CCCCN)NC(=O)[C@@H](Cc2ccc(NC(N)=O)cc2)NC(=O)[C@H](Cc2ccncc2)NC(=O)[C@H](NC(=O)[C@H](Cc2ccc(Cl)cc2)NC(=O)CCCCC2(N(CC(=O)O)CC(=O)O)CN(CC(=O)O)CCN(CC(=O)O)C2)CSSC[C@@H](C(=O)N[C@H](Cc2ccc(O)cc2)C(N)=O)NC1=O` gave a half-inhibitory concentration (IC50) of 1.69 nM.

Source of the values: paper PMC10053881 (Pharmaceutics, 2023).
